The list shows a part of the results.
Legend:
Test in all cases: log2 fold change, soluble protein after heating vs DMSO (PISA); higher = thermal stabilisation; K562 cells, 10 uM, 30 min; active = over 0.2 and 3.5 SD of the protein, either way, in both replicates (recomputed)
epoxomicin = compound: CC[C@H](C)[C@@H](C(=O)N[C@@H]([C@@H](C)O)C(=O)N[C@@H](CC(C)C)C(=O)[C@]1(CO1)C)NC(=O)[C@H]([C@@H](C)CC)N(C)C(=O)C [epoxomicin]
Procedure, shortened: (§1)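 Soluble protein was quantified by TMTpro 16plex LC-MS/MS after channel sums were equalised. It was obtained as the supernatant after 21,000xg for 90 min from pooled aliquots of K562 cells (2×10^6 cells/mL, 10 μM compound, 30 min) heated for 3 min across 48°C-58°C and extracted in PBS with 0.5% NP-40 at 4°C. Thermal stability values are relative to control samples and come from duplicates. They are given as log2 fold changes.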

By UniProt entry, the sequences of proteins in these tests, tags left out. Where a name states a change or a piece, a line headed by the entry shows the natural chain unless it says otherwise.
UniProt P15498: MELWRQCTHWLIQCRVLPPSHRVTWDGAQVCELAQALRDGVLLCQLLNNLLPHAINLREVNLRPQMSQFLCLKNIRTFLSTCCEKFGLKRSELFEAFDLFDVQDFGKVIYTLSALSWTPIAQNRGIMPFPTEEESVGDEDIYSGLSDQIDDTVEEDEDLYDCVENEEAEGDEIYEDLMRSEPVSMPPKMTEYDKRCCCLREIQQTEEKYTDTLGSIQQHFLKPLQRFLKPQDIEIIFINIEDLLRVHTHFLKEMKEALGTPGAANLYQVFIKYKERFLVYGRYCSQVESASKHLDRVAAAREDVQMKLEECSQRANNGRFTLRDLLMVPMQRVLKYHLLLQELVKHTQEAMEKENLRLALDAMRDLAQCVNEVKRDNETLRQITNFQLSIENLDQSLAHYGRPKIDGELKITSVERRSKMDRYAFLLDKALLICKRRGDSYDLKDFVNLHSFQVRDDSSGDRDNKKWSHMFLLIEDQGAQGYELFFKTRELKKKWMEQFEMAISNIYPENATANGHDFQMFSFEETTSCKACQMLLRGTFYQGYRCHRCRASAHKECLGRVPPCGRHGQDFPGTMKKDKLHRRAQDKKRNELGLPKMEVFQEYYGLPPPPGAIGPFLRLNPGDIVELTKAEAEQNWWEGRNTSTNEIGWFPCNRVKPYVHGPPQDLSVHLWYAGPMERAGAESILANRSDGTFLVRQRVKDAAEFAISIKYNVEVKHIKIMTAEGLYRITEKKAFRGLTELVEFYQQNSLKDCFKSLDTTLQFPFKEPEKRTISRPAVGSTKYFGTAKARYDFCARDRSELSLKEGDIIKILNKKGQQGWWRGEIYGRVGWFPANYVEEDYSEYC
UniProt Q8TEY7: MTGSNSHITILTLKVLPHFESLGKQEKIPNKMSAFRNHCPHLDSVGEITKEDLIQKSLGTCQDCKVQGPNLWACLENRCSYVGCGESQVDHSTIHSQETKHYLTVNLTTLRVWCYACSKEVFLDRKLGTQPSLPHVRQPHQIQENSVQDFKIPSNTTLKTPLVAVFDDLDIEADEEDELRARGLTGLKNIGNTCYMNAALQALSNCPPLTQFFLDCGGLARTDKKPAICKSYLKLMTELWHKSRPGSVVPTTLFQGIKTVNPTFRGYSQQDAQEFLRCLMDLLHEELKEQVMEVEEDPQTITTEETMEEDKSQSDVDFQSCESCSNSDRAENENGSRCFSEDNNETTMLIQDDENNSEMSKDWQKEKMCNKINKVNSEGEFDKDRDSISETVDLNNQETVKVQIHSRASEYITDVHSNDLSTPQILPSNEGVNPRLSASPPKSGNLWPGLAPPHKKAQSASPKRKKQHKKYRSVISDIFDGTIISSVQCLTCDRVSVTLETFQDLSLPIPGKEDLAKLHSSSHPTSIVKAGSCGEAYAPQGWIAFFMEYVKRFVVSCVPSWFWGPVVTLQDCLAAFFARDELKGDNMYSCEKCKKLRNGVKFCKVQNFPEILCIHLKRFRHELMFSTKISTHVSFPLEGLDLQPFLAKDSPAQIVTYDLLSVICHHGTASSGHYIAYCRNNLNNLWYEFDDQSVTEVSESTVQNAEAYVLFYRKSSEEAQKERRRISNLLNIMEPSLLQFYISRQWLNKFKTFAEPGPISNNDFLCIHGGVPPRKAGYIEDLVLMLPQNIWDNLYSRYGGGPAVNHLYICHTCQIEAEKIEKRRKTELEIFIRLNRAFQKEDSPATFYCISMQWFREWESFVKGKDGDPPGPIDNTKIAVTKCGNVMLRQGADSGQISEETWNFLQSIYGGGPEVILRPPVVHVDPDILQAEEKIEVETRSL
UniProt Q14146: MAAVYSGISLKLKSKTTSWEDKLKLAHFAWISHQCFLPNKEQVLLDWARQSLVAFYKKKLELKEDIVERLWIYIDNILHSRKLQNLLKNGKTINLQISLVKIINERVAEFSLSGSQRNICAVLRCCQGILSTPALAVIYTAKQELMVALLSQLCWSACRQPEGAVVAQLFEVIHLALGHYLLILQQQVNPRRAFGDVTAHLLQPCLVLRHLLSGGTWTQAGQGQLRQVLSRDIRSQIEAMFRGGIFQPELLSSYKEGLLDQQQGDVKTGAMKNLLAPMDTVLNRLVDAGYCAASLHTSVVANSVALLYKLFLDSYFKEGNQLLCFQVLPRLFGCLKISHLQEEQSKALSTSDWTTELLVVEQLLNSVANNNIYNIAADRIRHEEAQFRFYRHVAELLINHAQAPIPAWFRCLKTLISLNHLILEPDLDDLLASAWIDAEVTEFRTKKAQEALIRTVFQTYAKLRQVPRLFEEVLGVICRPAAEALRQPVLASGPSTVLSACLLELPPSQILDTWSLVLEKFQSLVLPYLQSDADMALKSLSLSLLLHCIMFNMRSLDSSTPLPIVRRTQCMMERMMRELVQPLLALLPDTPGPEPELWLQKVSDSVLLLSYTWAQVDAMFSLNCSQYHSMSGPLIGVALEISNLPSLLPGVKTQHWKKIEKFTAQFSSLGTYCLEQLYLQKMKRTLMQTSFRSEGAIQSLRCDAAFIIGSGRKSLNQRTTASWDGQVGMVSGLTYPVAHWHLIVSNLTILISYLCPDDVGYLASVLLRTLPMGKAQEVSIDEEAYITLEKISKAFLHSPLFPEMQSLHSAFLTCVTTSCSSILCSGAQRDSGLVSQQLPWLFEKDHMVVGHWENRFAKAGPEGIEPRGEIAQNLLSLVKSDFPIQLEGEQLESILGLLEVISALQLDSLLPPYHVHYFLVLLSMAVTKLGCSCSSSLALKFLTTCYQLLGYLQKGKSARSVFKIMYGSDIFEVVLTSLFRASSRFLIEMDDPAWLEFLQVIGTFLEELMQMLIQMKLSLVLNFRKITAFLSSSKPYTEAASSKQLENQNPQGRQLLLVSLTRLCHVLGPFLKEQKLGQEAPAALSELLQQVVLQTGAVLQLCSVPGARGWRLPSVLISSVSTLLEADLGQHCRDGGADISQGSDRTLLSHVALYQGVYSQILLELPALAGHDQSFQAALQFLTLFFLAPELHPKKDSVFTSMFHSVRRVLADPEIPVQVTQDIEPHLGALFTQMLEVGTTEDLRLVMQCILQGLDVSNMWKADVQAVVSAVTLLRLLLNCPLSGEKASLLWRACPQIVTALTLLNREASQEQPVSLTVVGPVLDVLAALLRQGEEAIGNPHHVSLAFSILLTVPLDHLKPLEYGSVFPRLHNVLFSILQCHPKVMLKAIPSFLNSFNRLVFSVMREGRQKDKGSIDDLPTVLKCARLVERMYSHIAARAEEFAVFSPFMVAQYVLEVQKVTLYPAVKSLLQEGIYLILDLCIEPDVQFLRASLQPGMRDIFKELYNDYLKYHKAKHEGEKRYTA
UniProt Q9UMX0, whole entry, looked up: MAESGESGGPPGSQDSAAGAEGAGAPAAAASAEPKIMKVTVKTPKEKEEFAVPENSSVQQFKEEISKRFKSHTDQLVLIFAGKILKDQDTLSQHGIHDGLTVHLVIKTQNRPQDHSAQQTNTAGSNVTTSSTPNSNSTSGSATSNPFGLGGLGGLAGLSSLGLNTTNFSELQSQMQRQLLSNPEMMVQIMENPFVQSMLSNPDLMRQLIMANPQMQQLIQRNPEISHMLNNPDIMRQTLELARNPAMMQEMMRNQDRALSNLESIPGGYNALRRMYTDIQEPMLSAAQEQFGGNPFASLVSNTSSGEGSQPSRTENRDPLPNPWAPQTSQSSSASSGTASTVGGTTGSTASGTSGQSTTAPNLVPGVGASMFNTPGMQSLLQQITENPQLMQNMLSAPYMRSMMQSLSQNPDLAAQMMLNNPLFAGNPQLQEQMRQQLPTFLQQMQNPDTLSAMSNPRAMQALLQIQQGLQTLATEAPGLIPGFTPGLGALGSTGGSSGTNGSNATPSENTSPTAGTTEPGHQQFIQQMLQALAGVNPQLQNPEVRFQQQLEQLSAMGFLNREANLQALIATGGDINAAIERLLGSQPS
UniProt Q8NFA0: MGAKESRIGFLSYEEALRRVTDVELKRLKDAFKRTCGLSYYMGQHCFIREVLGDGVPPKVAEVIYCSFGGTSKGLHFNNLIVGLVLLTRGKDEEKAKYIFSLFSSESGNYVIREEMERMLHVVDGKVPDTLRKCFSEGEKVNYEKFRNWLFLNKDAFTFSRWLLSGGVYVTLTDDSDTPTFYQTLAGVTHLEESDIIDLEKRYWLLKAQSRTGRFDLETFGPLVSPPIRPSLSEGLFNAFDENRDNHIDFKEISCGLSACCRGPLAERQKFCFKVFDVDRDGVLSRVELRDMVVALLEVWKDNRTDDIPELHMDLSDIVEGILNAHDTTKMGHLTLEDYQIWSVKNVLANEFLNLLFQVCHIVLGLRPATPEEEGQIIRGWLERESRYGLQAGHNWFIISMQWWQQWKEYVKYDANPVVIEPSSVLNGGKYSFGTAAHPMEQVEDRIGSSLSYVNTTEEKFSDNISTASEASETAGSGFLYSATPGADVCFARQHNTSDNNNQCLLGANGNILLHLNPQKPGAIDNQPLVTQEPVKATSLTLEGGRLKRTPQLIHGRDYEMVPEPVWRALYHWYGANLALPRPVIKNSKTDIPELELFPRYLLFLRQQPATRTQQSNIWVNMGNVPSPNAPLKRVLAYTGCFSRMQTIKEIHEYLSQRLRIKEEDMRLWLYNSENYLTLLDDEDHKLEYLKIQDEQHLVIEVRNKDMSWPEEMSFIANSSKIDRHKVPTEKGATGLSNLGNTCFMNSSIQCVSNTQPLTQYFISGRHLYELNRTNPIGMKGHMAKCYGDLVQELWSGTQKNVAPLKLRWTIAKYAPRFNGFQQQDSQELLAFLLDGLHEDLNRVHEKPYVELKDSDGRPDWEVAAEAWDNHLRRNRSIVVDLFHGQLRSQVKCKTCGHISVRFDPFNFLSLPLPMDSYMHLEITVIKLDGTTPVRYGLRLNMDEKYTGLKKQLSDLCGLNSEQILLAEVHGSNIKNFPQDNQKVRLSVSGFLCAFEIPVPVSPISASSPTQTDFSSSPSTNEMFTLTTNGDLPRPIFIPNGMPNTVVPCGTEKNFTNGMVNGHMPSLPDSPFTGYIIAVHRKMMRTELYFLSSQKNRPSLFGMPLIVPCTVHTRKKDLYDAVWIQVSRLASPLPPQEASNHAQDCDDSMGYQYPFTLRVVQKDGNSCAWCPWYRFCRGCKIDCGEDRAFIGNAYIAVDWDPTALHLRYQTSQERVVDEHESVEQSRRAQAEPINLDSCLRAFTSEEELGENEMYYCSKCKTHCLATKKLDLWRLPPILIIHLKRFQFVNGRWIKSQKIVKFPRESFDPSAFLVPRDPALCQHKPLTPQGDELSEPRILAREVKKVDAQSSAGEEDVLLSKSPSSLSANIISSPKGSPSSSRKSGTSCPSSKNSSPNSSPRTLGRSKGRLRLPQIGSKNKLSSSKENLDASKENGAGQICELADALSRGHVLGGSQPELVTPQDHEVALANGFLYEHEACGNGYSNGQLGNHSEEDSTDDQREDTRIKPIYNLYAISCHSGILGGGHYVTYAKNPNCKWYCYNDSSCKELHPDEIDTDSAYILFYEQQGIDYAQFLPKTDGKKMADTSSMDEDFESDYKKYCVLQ
UniProt P09936: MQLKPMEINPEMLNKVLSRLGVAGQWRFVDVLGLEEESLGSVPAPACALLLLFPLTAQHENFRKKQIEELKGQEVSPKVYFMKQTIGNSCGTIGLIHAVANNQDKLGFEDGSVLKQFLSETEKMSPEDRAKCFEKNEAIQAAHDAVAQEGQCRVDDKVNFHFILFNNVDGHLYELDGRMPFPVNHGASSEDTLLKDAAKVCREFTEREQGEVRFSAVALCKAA
UniProt Q9BQ65: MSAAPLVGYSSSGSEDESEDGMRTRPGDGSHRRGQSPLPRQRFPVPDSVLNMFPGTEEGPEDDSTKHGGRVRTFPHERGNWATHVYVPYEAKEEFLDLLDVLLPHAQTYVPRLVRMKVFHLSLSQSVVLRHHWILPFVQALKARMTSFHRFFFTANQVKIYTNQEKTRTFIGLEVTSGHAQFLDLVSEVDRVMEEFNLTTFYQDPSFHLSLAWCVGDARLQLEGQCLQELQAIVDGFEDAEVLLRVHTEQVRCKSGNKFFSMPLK
UniProt P22415: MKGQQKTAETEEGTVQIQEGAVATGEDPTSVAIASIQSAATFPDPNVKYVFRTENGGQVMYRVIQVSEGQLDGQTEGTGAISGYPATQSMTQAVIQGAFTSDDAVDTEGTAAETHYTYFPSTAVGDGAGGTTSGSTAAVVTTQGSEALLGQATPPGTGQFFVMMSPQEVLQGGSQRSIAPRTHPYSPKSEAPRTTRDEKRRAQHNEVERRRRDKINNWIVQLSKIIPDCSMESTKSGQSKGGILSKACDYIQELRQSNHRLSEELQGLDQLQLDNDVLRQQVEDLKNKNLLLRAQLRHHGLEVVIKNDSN
UniProt Q9BZM6: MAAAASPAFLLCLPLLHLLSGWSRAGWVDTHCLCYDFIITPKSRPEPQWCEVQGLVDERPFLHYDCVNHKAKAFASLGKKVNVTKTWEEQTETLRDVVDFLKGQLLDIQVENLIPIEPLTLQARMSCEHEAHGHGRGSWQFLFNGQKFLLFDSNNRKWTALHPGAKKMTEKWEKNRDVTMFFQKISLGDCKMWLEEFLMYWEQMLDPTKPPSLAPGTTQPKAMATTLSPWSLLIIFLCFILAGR

[1] = compound: CCn1c(C(=O)N(C2CC2)C2CC2)cc2c3c(ncn3C)c(Nc3cc(C)n(C)n3)nc21
Procedure, shortened: as §1

[2] = compound: CCn1cc(-c2ccnc3[nH]c(-c4cccc(CN(C)C)c4)cc23)c(-c2ccc(NC(=O)N(C)C)cc2)n1
Procedure, shortened: as §1

[3] = compound: CN(C)CC(=O)Nc1ccc2[nH]c(=O)c3ccccc3c2c1
Procedure, shortened: as §1

[4] = compound: CN1CCC(CNc2ccc3ncc(-c4cccc(OC(F)(F)F)c4)n3n2)CC1
Procedure, shortened: as §1

alvocidib = compound: CN1CC[C@H](c2c(O)cc(O)c3c(=O)cc(-c4ccccc4Cl)oc23)[C@H](O)C1 [alvocidib]
Procedure, shortened: as §1

Tubastatin A = compound: CN1CCc2c(c3ccccc3n2Cc2ccc(C(=O)NO)cc2)C1 [Tubastatin A]
Procedure, shortened: as §1

[5] = compound: CNC(=O)C1=CC=CC=C1NC2=NC(=NC=C2Cl)NC3=C(C=C(C=C3)N4CCOCC4)OC
Procedure, shortened: as §1

defactinib = compound: CNC(=O)c1ccc(Nc2ncc(C(F)(F)F)c(NCc3nccnc3N(C)S(C)(=O)=O)n2)cc1 [defactinib]
Procedure, shortened: as §1

[6] = compound: COC(=O)[C@H](CCSC)NC(=O)C1=C(C=C(C=C1)NC[C@H](CS)N)C2=CC=CC=C2
Procedure, shortened: as §1

[7] = compound: CN1C2=C(C3=C1C(=O)N(N=C3)CC4=CC(=CC=C4)N)SC(=C2)S(=O)C
Procedure, shortened: as §1

saracatinib = compound: CN1CCN(CCOc2cc(OC3CCOCC3)c3c(Nc4c(Cl)ccc5c4OCO5)ncnc3c2)CC1 [saracatinib]
Procedure, shortened: as §1

sotrastaurin = compound: CN1CCN(c2nc(C3=C(c4c[nH]c5ccccc45)C(=O)NC3=O)c3ccccc3n2)CC1 [sotrastaurin]
Procedure, shortened: as §1

[8] = compound: CNc1nc(-c2ccc3c(N)n[nH]c3c2)cc(N2C[C@@H](C(=O)NC3CCCCC3)CC[C@H]2C)n1
Procedure, shortened: as §1

[9] = compound: CC[C@H](C)N1C=C(C2=C(C=C(C=C21)C3=CN=C(C=C3)N4CCNCC4)C(=O)NCC5=C(C=C(NC5=O)C)C)C
Procedure, shortened: as §1

rosiglitazone = compound: CN(CCOC1=CC=C(C=C1)C[C@H]2C(=O)NC(=O)S2)C3=CC=CC=N3 (racemic) [rosiglitazone]
Procedure, shortened: as §1

[10] = compound: CC[C@@H]1C(=O)N(C)c2cnc(Nc3ccc(C(=O)NC4CCN(C)CC4)cc3OC)nc2N1C1CCCC1
Procedure, shortened: as §1

rucaparib = compound: CNCc1ccc(-c2[nH]c3cc(F)cc4c3c2CCNC4=O)cc1 [rucaparib]
Procedure, shortened: as §1

encorafenib = compound: COC(=O)N[C@@H](C)CNc1nccc(-c2cn(C(C)C)nc2-c2cc(Cl)cc(NS(C)(=O)=O)c2F)n1 [encorafenib]
Procedure, shortened: as §1

volasertib = compound: CC[C@@H]1C(=O)N(C)c2cnc(Nc3ccc(C(=O)N[C@H]4CC[C@H](N5CCN(CC6CC6)CC5)CC4)cc3OC)nc2N1C(C)C [volasertib]
Procedure, shortened: as §1

Measured: log2 fold change

VAV1 (UniProt P15498)
inactive: epoxomicin 0.063 | [1] -0.053 | [2] -0.005 | [3] 0.059 | [4] -0.112 | alvocidib -0.076 | Tubastatin A 0.101 | [5] 0.07 | defactinib 0.051 | [6] -0.019

USP33 (UniProt Q8TEY7)
inactive: [1] -0.038 | [3] -0.093 | [7] 0.217 | saracatinib -0.159 | sotrastaurin -0.16 | Tubastatin A 0.212 | [5] -0.049 | defactinib 0.132 | [8] -0.051 | [6] -0.164

URB2 (UniProt Q14146)
inactive: [9] -0.074 | [1] 0.223 | rosiglitazone 0.068 | alvocidib -0.101 | [5] -0.18

UBTF (UniProt P17480)
inactive: [1] -0.129 | [2] 0.045 | rosiglitazone -0.065 | [4] 0.058 | sotrastaurin -0.028 | alvocidib -0.044 | [5] -0.088

UHRF1 isoform 2 (UniProt Q96T88)
inactive: [1] -0.189 | Tubastatin A -0.053 | [5] 0.006

USP4 (UniProt Q13107)
inactive: [7] 0.264 | saracatinib -0.139 | [8] 0.102

VCPIP1 (UniProt Q96JH7)
inactive: epoxomicin -0.019 | [1] -0.065 | [2] 0.121 | [3] 0.115 | [4] -0.602 | sotrastaurin -0.529 | [5] 0.192 | defactinib 0.053 | [6] -0.19

UBR1 (UniProt Q8IWV7)
inactive: [9] 0.164 | epoxomicin -0.071 | [1] -0.224 | [2] -0.096 | rosiglitazone 0.03 | [7] 0.213 | [4] -0.521 | saracatinib -0.145 | sotrastaurin 0.128 | alvocidib -0.103 | [5] -0.02 | [8] -0.034

UBP1 (UniProt Q9NZI7)
inactive: [9] -0.166 | epoxomicin -0.293 | [3] -0.127 | rosiglitazone 0.025 | [7] 0.441 | saracatinib -0.349 | sotrastaurin 0.018 | alvocidib -0.041 | Tubastatin A -0.062 | defactinib 0.186 | [8] -0.143 | [6] 0.112

USP16 (UniProt Q9Y5T5)
inactive: [9] 0.253 | epoxomicin 0.031 | [1] -0.102 | [2] 0.021 | [3] -0.027 | rosiglitazone -0.06 | [7] 0.3 | [4] -0.015 | saracatinib -0.089 | alvocidib 0.143 | Tubastatin A 0.212 | [5] 0.026 | defactinib 0.162 | [8] 0.055 | [6] -0.134

UNC5B (UniProt Q8IZJ1)
inactive: epoxomicin 0.27 | [3] 0.438 | [7] -0.092 | saracatinib 0.078 | Tubastatin A -0.028 | defactinib -0.133 | [8] -0.072 | [6] 0.054

UFSP1 (UniProt Q6NVU6)
inactive: [1] -0.073 | [5] -0.127

URM1 isoform 2 (UniProt Q9BTM9)
inactive: [10] 0.058 | [9] 0.153 | [1] -0.12 | [2] -0.011 | [3] -0.193 | rosiglitazone 0.053 | [7] -0.265 | [4] 0.082 | saracatinib 0.203 | sotrastaurin 0.084 | Tubastatin A -0.111 | [5] -0.051 | defactinib -0.045 | rucaparib 0.014 | [8] -0.212 | encorafenib -0.107 | [6] 0.015

UBN2 (UniProt Q6ZU65)
inactive: [9] 0.108 | [3] -0.147 | alvocidib 0.254 | defactinib 0.236 | [6] -0.108

UBQLN1 isoform 2 (UniProt Q9UMX0)
inactive: [1] -0.102 | [7] 0.126 | saracatinib -0.285 | [5] -0.239 | [8] -0.049

USP32 (UniProt Q8NFA0)
inactive: volasertib -0.402 | [9] 0.127 | epoxomicin -0.158 | [1] -0.205 | [2] -0.104 | [7] 0.196 | [4] -0.068 | saracatinib -0.087 | sotrastaurin 0.083 | alvocidib 0.071 | Tubastatin A 0.133 | [5] -0.24 | [8] 0.101

USP54 (UniProt Q70EL1)
inactive: volasertib -0.217 | [1] 0.077 | [2] 0.072 | [3] 0.03 | rosiglitazone 0.036 | [7] 0.141 | [4] 0.051 | saracatinib -0.074 | Tubastatin A -0.09 | [5] 0.059 | defactinib -0.074 | [8] 0.132 | [6] -0.151

USP48 (UniProt Q86UV5)
inactive: [10] -0.159 | [9] 0.059 | sotrastaurin -0.123 | [5] -0.045 | rucaparib -0.102 | encorafenib 0.318

USP1 (UniProt O94782)
inactive: [10] 0.019 | [9] 0.063 | epoxomicin 0.055 | [1] -0.059 | [3] -0.097 | rosiglitazone 0.041 | sotrastaurin -0.12 | alvocidib -0.228 | Tubastatin A 0.087 | [5] -0.033 | defactinib -0.255 | rucaparib -0.018 | encorafenib 0.006 | [6] -0.116

UGP2 (UniProt C9JWG0)
inactive: [9] -0.224 | rosiglitazone 0.157 | sotrastaurin 0.099

UCHL1 (UniProt P09936)
inactive: [2] -0.466 | [4] -0.007

USB1 (UniProt Q9BQ65)
inactive: volasertib -0.076 | [1] 0.015 | [2] -0.037 | [3] -0.018 | [4] 0.056 | alvocidib 0.026 | Tubastatin A 0.308 | [5] 0.014 | defactinib -0.283 | [6] -0.096

URGCP (UniProt Q8TCY9)
inactive: volasertib -0.128 | [9] -0.263 | epoxomicin 0.07 | [1] -0.08 | [2] -0.007 | [3] 0.022 | rosiglitazone -0.063 | [7] 0.012 | [4] -0.107 | saracatinib 0.072 | sotrastaurin 0.052 | alvocidib -0.031 | Tubastatin A 0.098 | [5] 0.016 | defactinib -0.058 | [8] -0.079 | [6] -0.102

Random excerpt: two entries already listed
USB1 (UniProt Q9BQ65)
inactive: volasertib -0.076 | [1] 0.015 | [2] -0.037 | [3] -0.018 | [4] 0.056 | alvocidib 0.026 | Tubastatin A 0.308 | [5] 0.014 | defactinib -0.283 | [6] -0.096

URM1 isoform 2 (UniProt Q9BTM9)
inactive: [10] 0.058 | [9] 0.153 | [1] -0.12 | [2] -0.011 | [3] -0.193 | rosiglitazone 0.053 | [7] -0.265 | [4] 0.082 | saracatinib 0.203 | sotrastaurin 0.084 | Tubastatin A -0.111 | [5] -0.051 | defactinib -0.045 | rucaparib 0.014 | [8] -0.212 | encorafenib -0.107 | [6] 0.015

Going on with the list:

USP11 (UniProt P51784)
inactive: volasertib -0.006 | epoxomicin -0.009 | [2] -0.09 | [7] 0.269 | [4] 0.023 | saracatinib -0.045 | sotrastaurin -0.166 | alvocidib 0.328 | [8] 0.041

UTP23 (UniProt Q9BRU9)
inactive: [9] 0.157 | [7] 0.255 | saracatinib -0.03 | alvocidib 0.101 | [8] -0.033

USF1 (UniProt P22415)
inactive: volasertib -0.062 | [9] 0.029 | epoxomicin 0.153 | [1] -0.212 | [2] 0.187 | [3] -0.318 | rosiglitazone -0.131 | [4] 0.115 | sotrastaurin -0.018 | [5] 0.106 | defactinib 0.122 | [6] -0.191

UQCC3 (UniProt Q6UW78)
inactive: [9] -0.067 | epoxomicin -0.063 | [2] 0.021 | rosiglitazone 0.163 | [4] 0.232 | alvocidib 0.284

UPF3A (UniProt Q9H1J1)
inactive: [10] 0.249 | epoxomicin 0 | [1] -0.065 | sotrastaurin 0.067 | [5] -0.086 | rucaparib 0.067 | encorafenib -0.035

UTP20 (UniProt O75691)
inactive: volasertib 0.093 | epoxomicin -0.355 | Tubastatin A -0.028 | [5] -0.051

USP27X (UniProt A6NNY8)
inactive: epoxomicin 0.021 | [7] 0.018 | saracatinib -0.195 | alvocidib -0.005 | Tubastatin A -0.103 | [8] 0.279

ULBP1 (UniProt Q9BZM6)
inactive: volasertib -0.178 | epoxomicin 0.152 | [3] -0.019 | [7] 0.007 | saracatinib -0.027 | sotrastaurin -0.175 | Tubastatin A 0.016 | [5] -0.096 | defactinib 0.064 | [8] 0.07 | [6] 0.048

VAMP3 (UniProt Q15836)
inactive: [9] -0.051 | epoxomicin 0.101 | [1] 0 | rosiglitazone -0.019 | alvocidib 0.001 | Tubastatin A -0.111 | [5] 0.016

VASN (UniProt Q6EMK4)
inactive: epoxomicin -0.071 | [1] 0.229 | [3] -0.129 | rosiglitazone -0.034 | sotrastaurin 0.051 | [5] -0.068 | defactinib -0.153 | [6] -0.076

— the supplement of paper PMC10849652
